Reference: patent publication US5783568A, “Methods for treating cancer and other cell proliferative diseases” (Sugen, Inc., priority 1994, dated 1998)

Tested on: sFGFR (soluble extracellular domain of FGFR2 (bek))
Test: Isothermal titration calorimetry, aFGF binding to sFGFR
Design: species or system human
Conditions: ITC, mean ± SD of three experiments
Description: A plasmid encoding the extracellular, ligand-binding domain of human FGFR2 (residues 1-355) was constructed using standard oligonucleotide-directed mutagenesis (Amersham) to introduce a translational termination codon immediately prior to the beginning of the single transmembrane domain of the receptor (Dionne et al., 1990). BamHI and SacII restriction sites were introduced 3' to the new termination codon. An XbaI-SacII fragment was isolated from the replicative form (RF) of this M13 mutagenesis product, filled in using T4 DNA polymerase (Boehringer-Mannheim) and inserted into the SmaI site of the expression vector pCVN (Dionne et al., 1990). This expression vector, which contains both the neomycin resistance and the dihydrofolate reductase genes for selection and amplification, was transfected into CHO cells following published procedures. Wigler et al., 1979, Cell 16:777-785.
The binding of aFGF to sFGFR was studied using the technique of isothermal titration calorimetry (ITC). In this technique the heat liberated (or absorbed) upon binding is monitored as small aliquots of ligand are added sequentially to a solution of the receptor at known concentration, which is maintained at constant temperature. […]

aFGF: aFGF was expressed in E. coli and purified by binding to a heparin-sepharose column
Stoichiometry n of aFGF binding to sFGFR (aFGF as the ligand molecule, no added heparin): 0.9±0.14 | AH of aFGF binding to sFGFR: -5.3 ± 2.0 kcal/mol
